Record: PubChem BioAssay AID1259283 (Sanger Institute, 2017)

Screen: 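Kinome-wide siRNA search for kinases acting with BYL719, cetuximab or trametinib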 (primary screen)
Cell system: HT115 colorectal cancer cells
Knock-down reagent: siRNA pool against human genes
Challenge: anchor drug given one day after siRNA: BYL719 at 1 µM, cetuximab at 5 µg/ml, trametinib at 10 nM, or DMSO vehicle alone
Read-out: 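Viability normalised to non-targeting pool #2 wells and averaged over replicates, robust z-score against control wells, and a synergy score for each of three drugs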
Direction: robust z-score, knock-down alone: higher = more viable cells after knock-down
Call rule: 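a gene counts as essential when its robust z-score with knock-down alone is below -3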
Calls: active = essential (z below -3, no drug); inactive = no change without drug
This is an unselected part of 794 reagents tested. 14 of all reagents (1.8%) were called active. 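Calls reflect only viability loss without drug; drug synergy does not enter the call.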 Not all columns of the deposit are shown. Not given: the amount of reagent, the time to read-out.

What is on record for TAOK3?
robust z-score, knock-down alone: -0.399; call: inactive

With ITPK1, what was measured?
robust z-score, knock-down alone: 0.789; call: inactive

What did the screen give for CDK13?
robust z-score, knock-down alone: 0.789; call: inactive

Which result is listed for ACO1?
robust z-score, knock-down alone: 0.117; call: inactive

Which result is listed for PRPS1?
robust z-score, knock-down alone: 0.789; call: inactive

What is on record for FLT1?
robust z-score, knock-down alone: 0.789; call: inactive

What did the screen give for GATA3?
robust z-score, knock-down alone: -0.852; call: inactive

How did the screen score PIK3CB?
robust z-score, knock-down alone: 0.781; call: inactive

How did the screen score BPTF?
robust z-score, knock-down alone: -0.878; call: inactive

For PAK4, what does the deposit list?
robust z-score, knock-down alone: 0.243; call: inactive

For CKMT1B, what was measured?
robust z-score, knock-down alone: 0.789; call: inactive

For DYRK1A, what was measured?
robust z-score, knock-down alone: 0.5; call: inactive

For PGK1, what does the deposit list?
robust z-score, knock-down alone: 0.652; call: inactive

For CDK10, what does the deposit list?
robust z-score, knock-down alone: -0.389; call: inactive

With TSKS, what was measured?
robust z-score, knock-down alone: 0.789; call: inactive

With N4BP2, how do the results read?
robust z-score, knock-down alone: 0.789; call: inactive

How did the screen score PKM?
robust z-score, knock-down alone: 0.111; call: inactive

Copied from the listing (2 entries):
CDK13 → robust z-score, knock-down alone = 0.789; call = inactive
ACO1 → robust z-score, knock-down alone = 0.117; call = inactive

More reagents:
Which result is listed for PINK1?
robust z-score, knock-down alone: 0.437; call: inactive

With MAPK7, what does the deposit list?
robust z-score, knock-down alone: 0.789; call: inactive

Which result is listed for ATR?
robust z-score, knock-down alone: 0.735; call: inactive

For SGK1, how do the results read?
robust z-score, knock-down alone: 0.495; call: inactive

With MOS, what was measured?
robust z-score, knock-down alone: -2.24; call: inactive

With PPP2R1A, what was measured?
robust z-score, knock-down alone: 0.789; call: inactive

Which result is listed for GUCY2D?
robust z-score, knock-down alone: -1.97; call: inactive

For PRKCQ, what was measured?
robust z-score, knock-down alone: 0.595; call: inactive

For ARAF, what was measured?
robust z-score, knock-down alone: 0.789; call: inactive

For RPS6KC1, what does the deposit list?
robust z-score, knock-down alone: -0.362; call: inactive

For ACSL6, what does the deposit list?
robust z-score, knock-down alone: 0.789; call: inactive

For CUL1, what does the deposit list?
robust z-score, knock-down alone: 0.789; call: inactive

With DLG4, how do the results read?
robust z-score, knock-down alone: -0.454; call: inactive

What did the screen give for SRPK2?
robust z-score, knock-down alone: 0.305; call: inactive

For BMX, what was measured?
robust z-score, knock-down alone: 0.284; call: inactive

For RPS6KA6, what was measured?
robust z-score, knock-down alone: 0.228; call: inactive

For MAP4K5, what does the deposit list?
robust z-score, knock-down alone: -2.3; call: inactive

With TBK1, what does the deposit list?
robust z-score, knock-down alone: -1.5; call: inactive

With NME4, what does the deposit list?
robust z-score, knock-down alone: -0.322; call: inactive
